Assay results from US20080207864A1, “Organosilanes, Process For Production of the Same, and Use Thereof” (priority 2004, published 2008).

Test: Organic TFT device properties
Details: for Mobility / ON/OFF ratio: Table 1, organic TFT device with the material as semiconductor layer; for field-effect mobility of organic TFT / on/off ratio of organic TFT: compound as organic semiconductor layer, FIG. 8 to 11

Molecule | Mobility | ON/OFF ratio | field-effect mobility of organic TFT | on/off ratio of organic TFT
CCCCCCCCc1cc2[nH]c3cc([Si](OC)(OC)OC)ccc3c2cc1CCCCCCCC [Example 16-1, 2-trimethoxysilyl-6,7-dioctylcarbazole] | 2.2 × 10^−2 | 5 |  | 
CCCCCCCCCCCCCCCCCCc1ccc2c(c1)-c1ccc([Si](OC)(OC)OC)cc1C2 [Example 16-3, 2-trimethoxysilyl-6-octadecylfluorene] | 1.2 × 10^−2 | 4 |  | 
CCCCCCCCCCCCCCCCCCc1ccc2c(c1)sc1cc(-c3ccc4c(c3)sc3cc([Si](OC)(OC)OC)ccc34)ccc12 [Example 16-4] | 7.5 × 10^−2 | 5 |  | 
CCCCCCCCCCCCCCCCCCc1ccc2cc3c(ccc4cc5cc([Si](OCC)(OCC)OCC)ccc5cc43)cc2c1 [Example 16-5] | 0.15 | 6 |  | 
CCCCCCCCCCCCCCCCCCc1cccc2c3c(ccc12)-c1cc([Si](OC)(OC)OC)cc2cccc-3c12 [Example 16-8, 5-trimethoxysilyl-9-octadecylbenzofluoranthene] | 4.0 × 10^−2 | 5 |  | 
Si(OC2H5)3[Si(OC2H5)3]P7[C15]C15 [Example 15-4] |  |  | 2.3×10^−1 cm^2/Vs | about 6 digit
Si(OCH3)3[Si(OCH3)3]P9[C21]C21 [Example 15-5] |  |  | 2.7×10^−1 cm^2/Vs | about 6 digit
